No constants are given. Whether binding was seen depends on the method and setting. Binding seen in cells or lysates may run through a third protein. Some results given as binding are weak or reduced against the parent protein; the word gives no strength. For some assays here: Where a sequence is shown, tags or fusion partners need not be part of it.
B1: G-protein signaling modulator protein 2 (GPSM2) (protein, UniProt Q8VDU0 1-679)
chain: MEGNLISMREDHSFHVRYRMEASCLELALEGERLCKSGDCRAGVSFFEAAVQVGTEDLKTLSAIYSQLGNAYFYLHDYAKALEYHHHDLTLARTIGDQLGEAKASGNLGNTLKVLGNFDEAIVCCQRHLDISRELNDKVGEARALYNLGNVYHAKGKSFGCPGPQDTGEFPEDVRNALQAAVDLYEENLSLVTALGDRAAQGRAFGNLGNTHYLLGNFRDAVIAHEQRLLIAKEFGDKAAERRAYSNLGNAYIFLGEFETASEYYKKTLLLARQLKDRAVEAQSCYSLGNTYTLLQDYEKAIDYHLKHLAIAQELKDRIGEGRACWSLGNAYTALGNHDQAMHFAEKHLEISREVGDKSGELTARLNLSDLQMVLGLSYSTNNSMMSENIEIDGSLHGAGAKLGRRHSMENLELMKLTPEKVPNWNSEILAKQKPLIAKPSAKLLFVNRLKGKKYKSGSACTKVLQDASNSVDHRAPRSQKKISSDTIGDEGFFDLLRRFQSNRMDDQRCHLQGNCRTTSTAAASATPKLMKAPSVSVVSPNTDEFLDLLASSQSRRLDDQRASFSNLPGLRLTKGNSPSVLERLMTNDKKEPDEDFFDILVKCQGSRLDDQRCAPPSAATKGPTVPDEDFFSLILRSQAKRMDEQRVLLQRDPNRDSEFGLKELLQNNALLEFKHSGK
B2: GPSM2 fusion construct expressed in 293T cells (protein, UniProt Q8VDU0 1-679)
chain: B1 chain

Sequences of proteins named here, by UniProt entry; tags and fusion partners are left off.
UniProt P50149: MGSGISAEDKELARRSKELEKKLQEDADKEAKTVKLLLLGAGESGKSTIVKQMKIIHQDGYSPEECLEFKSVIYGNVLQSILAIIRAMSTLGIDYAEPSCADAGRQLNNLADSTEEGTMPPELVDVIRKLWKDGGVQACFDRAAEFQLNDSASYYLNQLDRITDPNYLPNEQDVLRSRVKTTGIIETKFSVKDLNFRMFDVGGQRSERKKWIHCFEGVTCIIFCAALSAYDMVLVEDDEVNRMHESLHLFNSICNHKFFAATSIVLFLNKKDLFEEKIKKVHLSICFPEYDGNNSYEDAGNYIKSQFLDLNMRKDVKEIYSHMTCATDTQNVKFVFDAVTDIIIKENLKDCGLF

Columns and labels:
[1] = biological target: cone transducin alpha subunit (Gαt2) (mouse (endogenous in retina)) (UniProt P50149); assay: co-IP
[2] = biological target: Gαt2 (Gnat2) fusion construct expressed in 293T cells (UniProt P50149); assay: co-IP

Binder	binding [1]	binding [2]
B1	binds	
B2		binds
